In the supplement of paper PMC10849652:
Some of the results follow.

Sequences of proteins named here, by UniProt entry; tags and fusion partners are left off. A change or cut given only in a name is not applied to a line headed by its entry.
UniProt Q9BRT6: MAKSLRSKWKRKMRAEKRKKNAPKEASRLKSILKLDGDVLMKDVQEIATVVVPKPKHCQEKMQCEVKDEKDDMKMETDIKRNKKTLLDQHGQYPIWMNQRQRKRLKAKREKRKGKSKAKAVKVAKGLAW
UniProt Q9UHB6: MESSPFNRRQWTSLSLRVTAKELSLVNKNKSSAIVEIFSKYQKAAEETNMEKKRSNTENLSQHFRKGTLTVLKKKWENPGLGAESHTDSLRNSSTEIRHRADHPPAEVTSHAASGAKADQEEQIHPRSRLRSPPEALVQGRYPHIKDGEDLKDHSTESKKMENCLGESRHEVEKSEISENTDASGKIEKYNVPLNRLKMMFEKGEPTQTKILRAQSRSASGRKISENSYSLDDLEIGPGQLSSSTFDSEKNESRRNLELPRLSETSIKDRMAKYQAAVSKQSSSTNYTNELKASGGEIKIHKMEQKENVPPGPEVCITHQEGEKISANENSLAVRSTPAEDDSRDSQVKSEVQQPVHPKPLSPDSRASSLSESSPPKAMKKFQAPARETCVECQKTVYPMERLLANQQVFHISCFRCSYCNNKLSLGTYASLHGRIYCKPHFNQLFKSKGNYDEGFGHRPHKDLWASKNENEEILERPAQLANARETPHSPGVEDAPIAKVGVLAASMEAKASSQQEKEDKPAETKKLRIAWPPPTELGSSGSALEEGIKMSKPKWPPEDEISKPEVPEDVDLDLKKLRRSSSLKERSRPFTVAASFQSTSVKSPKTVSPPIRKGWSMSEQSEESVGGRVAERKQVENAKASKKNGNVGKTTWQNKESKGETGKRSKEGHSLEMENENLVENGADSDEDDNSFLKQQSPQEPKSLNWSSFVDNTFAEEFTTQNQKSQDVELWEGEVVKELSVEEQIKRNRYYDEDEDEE
UniProt Q9UGP4: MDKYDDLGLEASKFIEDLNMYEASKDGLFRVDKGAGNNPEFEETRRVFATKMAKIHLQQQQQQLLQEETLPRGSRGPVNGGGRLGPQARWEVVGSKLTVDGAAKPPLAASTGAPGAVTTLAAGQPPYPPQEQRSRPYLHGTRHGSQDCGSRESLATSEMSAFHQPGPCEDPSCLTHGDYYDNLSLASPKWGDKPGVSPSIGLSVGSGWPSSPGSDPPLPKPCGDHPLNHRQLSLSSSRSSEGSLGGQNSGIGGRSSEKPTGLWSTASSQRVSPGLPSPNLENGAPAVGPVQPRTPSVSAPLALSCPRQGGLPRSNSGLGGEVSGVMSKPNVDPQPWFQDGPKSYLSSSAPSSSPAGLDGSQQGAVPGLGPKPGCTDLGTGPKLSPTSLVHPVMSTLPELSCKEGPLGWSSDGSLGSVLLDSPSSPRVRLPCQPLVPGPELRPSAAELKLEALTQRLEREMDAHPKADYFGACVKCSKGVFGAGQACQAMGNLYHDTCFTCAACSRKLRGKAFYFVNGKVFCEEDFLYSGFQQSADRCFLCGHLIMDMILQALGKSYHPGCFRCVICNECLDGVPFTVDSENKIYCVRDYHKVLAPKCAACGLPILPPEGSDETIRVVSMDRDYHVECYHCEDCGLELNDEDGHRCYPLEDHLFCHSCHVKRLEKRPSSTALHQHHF
UniProt Q6IAA8, whole entry, looked up: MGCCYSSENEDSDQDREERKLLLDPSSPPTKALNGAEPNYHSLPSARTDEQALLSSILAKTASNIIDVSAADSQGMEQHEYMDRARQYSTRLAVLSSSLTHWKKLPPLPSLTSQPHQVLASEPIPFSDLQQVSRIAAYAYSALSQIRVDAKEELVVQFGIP
UniProt P50851: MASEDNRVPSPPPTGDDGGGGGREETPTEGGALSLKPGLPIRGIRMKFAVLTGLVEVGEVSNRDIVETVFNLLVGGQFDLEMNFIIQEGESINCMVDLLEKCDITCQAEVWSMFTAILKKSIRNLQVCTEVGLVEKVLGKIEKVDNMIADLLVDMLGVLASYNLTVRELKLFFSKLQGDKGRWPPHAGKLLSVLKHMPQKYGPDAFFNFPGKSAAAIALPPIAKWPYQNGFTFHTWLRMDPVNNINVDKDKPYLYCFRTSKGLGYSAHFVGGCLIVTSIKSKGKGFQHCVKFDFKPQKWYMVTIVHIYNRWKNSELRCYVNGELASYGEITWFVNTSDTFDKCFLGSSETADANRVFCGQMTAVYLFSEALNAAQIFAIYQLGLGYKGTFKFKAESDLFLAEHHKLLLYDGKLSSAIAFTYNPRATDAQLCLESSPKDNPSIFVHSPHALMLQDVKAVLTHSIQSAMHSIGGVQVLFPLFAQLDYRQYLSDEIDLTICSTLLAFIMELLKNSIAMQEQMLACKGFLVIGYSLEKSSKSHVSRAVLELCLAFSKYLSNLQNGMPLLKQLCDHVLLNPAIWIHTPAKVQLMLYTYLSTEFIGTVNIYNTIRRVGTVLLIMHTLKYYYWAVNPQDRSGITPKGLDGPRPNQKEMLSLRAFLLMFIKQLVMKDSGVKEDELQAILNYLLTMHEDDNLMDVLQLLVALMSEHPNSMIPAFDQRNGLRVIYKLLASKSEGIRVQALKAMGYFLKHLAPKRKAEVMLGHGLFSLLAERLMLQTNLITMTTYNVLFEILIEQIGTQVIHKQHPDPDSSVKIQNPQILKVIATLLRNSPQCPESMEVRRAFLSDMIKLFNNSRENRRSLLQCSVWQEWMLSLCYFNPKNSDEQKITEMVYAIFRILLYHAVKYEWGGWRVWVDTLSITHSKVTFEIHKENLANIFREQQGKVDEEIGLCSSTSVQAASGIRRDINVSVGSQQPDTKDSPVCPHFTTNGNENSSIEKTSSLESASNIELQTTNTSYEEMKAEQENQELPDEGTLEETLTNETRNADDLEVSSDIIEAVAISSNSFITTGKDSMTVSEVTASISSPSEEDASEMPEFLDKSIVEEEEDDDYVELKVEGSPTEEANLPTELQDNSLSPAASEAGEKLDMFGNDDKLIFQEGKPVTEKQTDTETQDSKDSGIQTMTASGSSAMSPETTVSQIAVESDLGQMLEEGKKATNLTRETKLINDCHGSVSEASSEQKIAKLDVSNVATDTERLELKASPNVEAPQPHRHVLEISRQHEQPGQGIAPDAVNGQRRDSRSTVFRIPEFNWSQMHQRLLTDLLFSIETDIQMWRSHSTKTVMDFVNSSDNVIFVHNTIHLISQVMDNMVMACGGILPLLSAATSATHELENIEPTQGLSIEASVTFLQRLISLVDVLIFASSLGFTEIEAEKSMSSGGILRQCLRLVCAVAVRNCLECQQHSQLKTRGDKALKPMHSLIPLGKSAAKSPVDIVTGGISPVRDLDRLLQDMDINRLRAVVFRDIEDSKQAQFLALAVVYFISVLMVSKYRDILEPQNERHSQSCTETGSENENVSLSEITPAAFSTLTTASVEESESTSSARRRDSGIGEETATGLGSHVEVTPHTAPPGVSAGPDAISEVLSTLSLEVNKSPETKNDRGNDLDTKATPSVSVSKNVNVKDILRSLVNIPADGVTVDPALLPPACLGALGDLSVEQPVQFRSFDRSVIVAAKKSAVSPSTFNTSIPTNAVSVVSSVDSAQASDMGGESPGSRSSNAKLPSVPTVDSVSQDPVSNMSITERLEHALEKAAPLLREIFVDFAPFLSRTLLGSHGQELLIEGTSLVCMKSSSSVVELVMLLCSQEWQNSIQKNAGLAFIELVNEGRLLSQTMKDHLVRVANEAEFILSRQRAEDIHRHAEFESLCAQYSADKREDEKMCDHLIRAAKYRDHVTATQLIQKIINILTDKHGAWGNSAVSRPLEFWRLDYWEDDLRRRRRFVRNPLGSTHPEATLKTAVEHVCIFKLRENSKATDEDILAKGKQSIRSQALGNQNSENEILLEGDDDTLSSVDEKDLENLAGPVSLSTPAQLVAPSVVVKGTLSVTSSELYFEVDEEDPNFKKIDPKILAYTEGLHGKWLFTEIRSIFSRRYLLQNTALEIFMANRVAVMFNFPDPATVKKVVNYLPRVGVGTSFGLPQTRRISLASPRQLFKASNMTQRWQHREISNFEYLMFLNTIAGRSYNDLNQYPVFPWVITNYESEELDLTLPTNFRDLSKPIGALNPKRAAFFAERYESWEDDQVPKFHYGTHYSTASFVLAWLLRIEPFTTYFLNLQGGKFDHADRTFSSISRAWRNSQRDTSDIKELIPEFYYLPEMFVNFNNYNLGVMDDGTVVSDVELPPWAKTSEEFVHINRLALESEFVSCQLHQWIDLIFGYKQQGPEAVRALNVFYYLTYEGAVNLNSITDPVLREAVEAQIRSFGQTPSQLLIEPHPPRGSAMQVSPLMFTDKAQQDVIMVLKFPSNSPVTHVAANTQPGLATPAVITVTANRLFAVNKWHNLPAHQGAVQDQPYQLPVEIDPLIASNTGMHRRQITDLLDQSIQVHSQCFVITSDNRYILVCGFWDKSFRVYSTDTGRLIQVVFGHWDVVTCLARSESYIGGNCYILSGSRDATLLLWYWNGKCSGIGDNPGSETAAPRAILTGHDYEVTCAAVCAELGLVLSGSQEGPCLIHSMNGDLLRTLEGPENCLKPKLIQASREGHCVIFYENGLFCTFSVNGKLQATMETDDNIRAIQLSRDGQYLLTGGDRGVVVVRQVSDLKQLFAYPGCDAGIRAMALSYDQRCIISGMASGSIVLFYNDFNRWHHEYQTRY
UniProt Q8TCA0: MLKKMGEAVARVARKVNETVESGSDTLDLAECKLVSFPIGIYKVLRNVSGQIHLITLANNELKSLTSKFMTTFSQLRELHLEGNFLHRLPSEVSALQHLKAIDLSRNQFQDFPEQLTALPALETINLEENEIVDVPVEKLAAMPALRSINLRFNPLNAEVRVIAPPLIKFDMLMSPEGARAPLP
UniProt O14910: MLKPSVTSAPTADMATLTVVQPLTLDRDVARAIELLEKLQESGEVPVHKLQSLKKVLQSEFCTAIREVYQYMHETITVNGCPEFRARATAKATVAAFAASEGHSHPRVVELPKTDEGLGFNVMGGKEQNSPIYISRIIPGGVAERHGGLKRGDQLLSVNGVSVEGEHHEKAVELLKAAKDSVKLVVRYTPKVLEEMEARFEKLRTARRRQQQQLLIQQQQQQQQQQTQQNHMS
UniProt Q14847: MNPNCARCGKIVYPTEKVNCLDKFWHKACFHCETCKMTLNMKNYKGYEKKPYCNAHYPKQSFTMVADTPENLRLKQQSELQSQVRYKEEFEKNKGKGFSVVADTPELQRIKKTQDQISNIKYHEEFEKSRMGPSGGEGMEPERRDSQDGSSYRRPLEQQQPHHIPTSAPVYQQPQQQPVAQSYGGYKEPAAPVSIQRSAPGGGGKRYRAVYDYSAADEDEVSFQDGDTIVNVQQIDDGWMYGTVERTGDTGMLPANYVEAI
UniProt Q9Y2U8: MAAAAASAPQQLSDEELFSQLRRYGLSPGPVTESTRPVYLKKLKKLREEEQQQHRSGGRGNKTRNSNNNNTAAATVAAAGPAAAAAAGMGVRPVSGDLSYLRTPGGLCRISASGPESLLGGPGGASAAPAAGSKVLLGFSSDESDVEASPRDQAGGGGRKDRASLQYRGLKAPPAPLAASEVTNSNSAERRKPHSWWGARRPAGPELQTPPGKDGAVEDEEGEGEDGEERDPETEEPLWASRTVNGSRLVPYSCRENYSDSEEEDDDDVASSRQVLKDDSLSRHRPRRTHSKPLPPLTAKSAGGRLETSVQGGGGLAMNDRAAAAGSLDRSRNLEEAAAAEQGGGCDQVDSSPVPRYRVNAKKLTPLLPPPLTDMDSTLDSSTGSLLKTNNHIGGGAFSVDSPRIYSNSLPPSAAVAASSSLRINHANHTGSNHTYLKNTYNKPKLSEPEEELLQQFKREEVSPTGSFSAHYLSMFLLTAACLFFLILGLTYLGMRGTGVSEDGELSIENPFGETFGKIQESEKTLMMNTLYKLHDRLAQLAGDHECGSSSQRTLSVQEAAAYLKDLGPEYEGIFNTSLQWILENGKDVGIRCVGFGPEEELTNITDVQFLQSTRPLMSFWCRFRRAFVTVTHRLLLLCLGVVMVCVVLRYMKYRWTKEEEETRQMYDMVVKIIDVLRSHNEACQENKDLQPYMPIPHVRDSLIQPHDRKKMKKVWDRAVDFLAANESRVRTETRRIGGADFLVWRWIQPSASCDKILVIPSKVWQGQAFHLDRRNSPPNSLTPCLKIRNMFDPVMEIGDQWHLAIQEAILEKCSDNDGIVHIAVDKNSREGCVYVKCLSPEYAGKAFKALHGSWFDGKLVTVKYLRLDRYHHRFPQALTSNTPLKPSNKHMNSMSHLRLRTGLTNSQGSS
UniProt Q12907: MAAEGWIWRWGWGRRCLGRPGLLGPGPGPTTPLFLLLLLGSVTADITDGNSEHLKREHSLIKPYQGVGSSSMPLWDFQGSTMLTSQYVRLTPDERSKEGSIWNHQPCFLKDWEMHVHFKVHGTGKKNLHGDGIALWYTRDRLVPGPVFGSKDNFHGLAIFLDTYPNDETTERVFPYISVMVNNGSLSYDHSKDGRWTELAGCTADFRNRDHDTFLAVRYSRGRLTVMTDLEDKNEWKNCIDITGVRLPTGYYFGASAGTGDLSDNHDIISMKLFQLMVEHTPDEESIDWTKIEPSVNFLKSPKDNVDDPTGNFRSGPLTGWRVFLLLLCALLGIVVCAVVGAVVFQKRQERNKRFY

Assays:
Experiment in all cases: log2 fold change, soluble protein after heating vs DMSO (PISA); higher = thermal stabilisation; K562 cells, 10 uM, 30 min; active = over 0.2 and 3.5 SD of the protein, either way, in both replicates (recomputed)
[1] = compound: CC1=C(C=C(C=C1)NC(=O)C2=CC(=CC=C2)C(C)(C)C#N)NC3=CC4=C(C=C3)N=CN(C4=O)C
Procedure, shortened: (§1)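 Quantification of soluble protein used TMTpro 16plex LC-MS/MS, with channel sums equalised. Samples were the supernatant after 21,000xg for 90 min of pooled aliquots from K562 cells (2×10^6 cells/mL) treated with 10 μM compound for 30 min, heated for 3 min over 48°C-58°C, and extracted in PBS with 0.5% NP-40 at 4°C. Values, from duplicates, describe thermal stability against control samples on a log2 fold-change scale.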

[2] = compound: CC1=C(C=C(C=C1)NC(=O)C2=CC(=CC=C2)N(C)C)NC(=O)C3=CC=C(C=C3)O
Procedure, shortened: as §1

[3] = compound: CC1=CC=C(C=C1)SC2=C3C=C(SC3=CN=C2)C(=O)N
Procedure, shortened: as §1

[4] = compound: CC1=NC(=CC=C1)C2=C(N=C(N2)C(C)(C)C)C3=CC4=NC=CN=C4C=C3
Procedure, shortened: as §1

[5] = compound: CCCCN(Cc1ccc(C(=O)NO)cc1)C(=O)Nc1ccccc1 [Nexturastat A]
Procedure, shortened: as §1

[6] = compound: CCCS(=O)(=O)Nc1ccc(F)c(C(=O)c2c[nH]c3ncc(-c4ccc(Cl)cc4)cc23)c1F [vemurafenib]
Procedure, shortened: as §1

[7] = compound: CCCS(=O)(=O)Nc1ccc(F)c(C(=O)c2c[nH]c3ncc(Cl)cc23)c1F
Procedure, shortened: as §1

[8] = compound: CCCc1cc(C)[nH]c(=O)c1CNC(=O)c1cc(-c2ccnc(N3CCN(C)CC3)c2)cc2c1cnn2C(C)C
Procedure, shortened: as §1

[9] = compound: CCN(CC)Cc1ccc2cc(COC(=O)Nc3ccc(C(=O)NO)cc3)ccc2c1 [givinostat]
Procedure, shortened: as §1

[10] = compound: CCN(CCCOc1ccc2c(Nc3cc(CC(=O)Nc4cccc(F)c4)[nH]n3)ncnc2c1)CCOP(=O)(O)O [barasertib]
Procedure, shortened: as §1

Measured: log2 fold change

LMBR1 isoform 3 (UniProt Q8WVP7)
inactive: [1] -0.156 | [2] 0.17 | [3] 0.128 | [4] 0.036 | [5] 0.134 | [6] 0.049 | [7] 0.175 | [8] -0.086 | [9] 0 | [10] -0.007

LAPTM4A (UniProt Q15012)
inactive: [1] 0.008

LLPH (UniProt Q9BRT6)
inactive: [1] 0.047 | [2] -0.006 | [3] -0.103 | [4] -0.269 | [5] 0.182 | [6] -0.186 | [7] 0.054 | [8] 0.212 | [9] 0.058 | [10] -0.217

LCLAT1 (UniProt Q6UWP7)
inactive: [1] -0.019 | [2] 0.016 | [3] -0.055 | [4] -0.006 | [5] -0.034 | [6] -0.04 | [7] -0.031 | [8] 0.011 | [9] 0.049 | [10] 0.031

LIMA1 isoform 4 (UniProt Q9UHB6)
inactive: [1] -0.082 | [2] 0.133 | [3] -0.014 | [4] 0.033 | [5] 0.004 | [6] 0.061 | [7] 0.011 | [8] -0.033 | [9] 0.032 | [10] -0.025

LIMD1 (UniProt Q9UGP4)
inactive: [1] 0 | [2] 0.009 | [3] 0.037 | [4] -0.012 | [5] -0.022 | [6] 0.024 | [7] 0.084 | [8] 0.019 | [9] 0.02 | [10] -0.017

LNPEP (UniProt Q9UIQ6)
inactive: [1] 0.018 | [2] 0.03 | [3] 0.01 | [4] -0.009 | [5] -0.051 | [6] -0.013 | [7] 0.015 | [8] 0.008 | [9] 0.014 | [10] -0.009

LEMD2 (UniProt Q8NC56)
inactive: [1] -0.068 | [2] -0.02 | [3] 0.038 | [4] 0.051 | [5] -0.002 | [6] -0.001 | [7] 0.045 | [8] 0.002 | [9] -0.022 | [10] 0.017

LPIN2 (UniProt Q92539)
inactive: [1] -0.076 | [2] 0.027 | [3] 0.048 | [4] 0.031 | [5] 0.083 | [6] -0.08 | [7] -0.067 | [8] 0.043 | [9] -0.082 | [10] 0.04

LHPP (UniProt Q9H008)
inactive: [1] 0.01 | [2] 0.008 | [3] 0.048 | [4] 0.05 | [5] 0.081 | [6] -0.055 | [7] -0.041 | [8] 0.003 | [9] -0.027 | [10] -0.081

LNPK (UniProt Q9C0E8)
inactive: [1] -0.011 | [2] 0.01 | [3] -0.038 | [4] 0.016 | [5] -0.023 | [6] -0.042 | [7] -0.027 | [8] -0.028 | [9] -0.018 | [10] 0.012

LAMTOR1 (UniProt Q6IAA8)
inactive: [1] 0.093 | [2] 0.019 | [3] 0.058 | [4] 0.069 | [5] 0.173 | [6] 0 | [7] 0.037 | [8] 0.056 | [9] -0.013 | [10] -0.019

LRBA (UniProt P50851)
inactive: [1] -0.011 | [2] 0 | [3] -0.011 | [4] 0.001 | [5] -0.046 | [6] 0.01 | [7] 0.031 | [8] -0.025 | [9] 0.008 | [10] 0.038

LRRC20 (UniProt Q8TCA0)
inactive: [1] -0.025 | [2] -0.142 | [3] -0.064 | [4] 0.002 | [5] -0.11 | [6] 0.009 | [7] -0.043 | [8] 0.012 | [9] -0.055 | [10] 0.007

KTN1 (UniProt Q86UP2)
inactive: [1] -0.071 | [2] -0.051 | [3] 0.014 | [4] -0.002 | [5] 0.141 | [6] 0.012 | [7] 0.027 | [8] 0.034 | [9] 0.022 | [10] 0.033

LDHA isoform 3 (UniProt P00338)
inactive: [1] -0.006 | [2] 0.015 | [3] 0.024 | [4] 0.008 | [5] -0.077 | [6] 0.013 | [7] 0.03 | [8] -0.015 | [9] -0.008 | [10] -0.015

LIG1 (UniProt P18858)
inactive: [1] -0.034 | [2] -0.1 | [3] 0.079 | [4] 0.085 | [5] -0.034 | [6] 0.063 | [7] 0.09 | [8] 0.016 | [9] 0.129 | [10] 0.051

LRRC47 (UniProt Q8N1G4)
inactive: [1] 0.016 | [2] 0.002 | [3] -0.001 | [4] 0.08 | [5] -0.066 | [6] 0.042 | [7] 0.022 | [8] 0.013 | [9] -0.023 | [10] 0

LRG1 (UniProt P02750)
inactive: [1] 0.103 | [2] -0.163 | [3] 0.054 | [4] -0.09 | [5] -0.184 | [6] -0.081 | [7] -0.061 | [8] 0.137 | [9] -0.422

Quoted from the entries so far (2 entries):
KTN1 (UniProt Q86UP2)
inactive: [1] -0.071 | [2] -0.051 | [3] 0.014 | [4] -0.002 | [5] 0.141 | [6] 0.012 | [7] 0.027 | [8] 0.034 | [9] 0.022 | [10] 0.033

LDHA isoform 3 (UniProt P00338)
inactive: [1] -0.006 | [2] 0.015 | [3] 0.024 | [4] 0.008 | [5] -0.077 | [6] 0.013 | [7] 0.03 | [8] -0.015 | [9] -0.008 | [10] -0.015

Following part.

L2HGDH (UniProt Q9H9P8)
inactive: [1] 0.03 | [2] 0.009 | [3] 0.021 | [4] -0.046 | [5] -0.102 | [6] 0.015 | [7] -0.042 | [8] -0.081 | [9] -0.016 | [10] 0.011

LDB1 (UniProt Q86U70)
inactive: [1] 0.016 | [2] 0.023 | [3] 0.022 | [4] -0.027 | [5] -0.024 | [6] -0.008 | [7] -0.007 | [8] -0.022 | [9] 0.003 | [10] -0.034

LIN7A (UniProt O14910)
inactive: [1] -0.042 | [2] -0.008 | [3] 0.122 | [4] -0.058 | [5] -0.012 | [6] -0.038 | [7] 0.112 | [8] -0.031 | [9] -0.034 | [10] 0.002

LASP1 (UniProt Q14847)
inactive: [1] 0.014 | [2] 0.006 | [3] 0.018 | [4] 0.036 | [5] -0.026 | [6] -0.001 | [7] -0.021 | [8] 0.065 | [9] -0.03 | [10] -0.002

LMO2 isoform 3 (UniProt P25791)
inactive: [1] 0.018 | [2] 0.004 | [3] 0.007 | [4] -0.021 | [5] -0.135 | [6] 0.007 | [7] -0.004 | [8] -0.151 | [9] -0.138 | [10] -0.031

LEO1 (UniProt Q8WVC0)
inactive: [1] -0.086 | [2] -0.113 | [3] 0 | [4] -0.075 | [5] 0.109 | [6] -0.025 | [7] 0.033 | [8] 0.029 | [9] 0.118 | [10] 0.032

LAMB1 (UniProt P07942)
inactive: [1] -0.019 | [2] 0.006 | [3] 0.013 | [4] 0.007 | [5] -0.009 | [6] -0.013 | [7] -0.036 | [8] 0.021 | [9] 0.023 | [10] 0.003

LARS2 (UniProt Q15031)
inactive: [1] -0.004 | [2] -0.022 | [3] -0.013 | [4] 0.018 | [5] -0.063 | [6] 0.048 | [7] 0.056 | [8] -0.001 | [9] 0.009 | [10] 0.036

LDAH isoform 2 (UniProt Q9H6V9)
inactive: [1] -0.026 | [2] -0.008 | [3] 0 | [4] -0.024 | [5] 0.032 | [6] 0.044 | [7] 0.024 | [8] -0.04 | [9] 0.059 | [10] 0.031

LEMD3 (UniProt Q9Y2U8)
inactive: [1] -0.066 | [2] -0.071 | [3] -0.005 | [4] -0.017 | [5] 0.026 | [6] 0.056 | [7] 0.005 | [8] 0.054 | [9] 0.077 | [10] 0.023

LMAN2 (UniProt Q12907)
inactive: [1] -0.021 | [2] 0.03 | [3] 0.084 | [4] 0.054 | [5] -0.026 | [6] -0.006 | [7] -0.025 | [8] -0.072 | [9] -0.013 | [10] 0

LDLR (UniProt P01130)
inactive: [1] -0.063 | [2] 0.006 | [3] 0.006 | [4] 0.01 | [5] 0 | [6] -0.022 | [7] -0.073 | [8] -0.018 | [9] -0.03 | [10] 0.019
